Some peptides are written in HELM: one residue between dots, names in brackets for other building blocks, links after the first $.
Experiment: general procedure: Boc solid-phase peptide synthesis; PAM resin (t-Boc-aminoacyl-OCH2 PAM); DCC/HOBT active esters in NMP; symmetrical anhydrides (DCC) in DMF
Settings: whole synthesis, trifluoroacetate salts after HPLC, acetate salts after ion exchange; for final HPLC purity: analytical HPLC, Vydac C-4, UV 215 nm; for final HPLC purity / crude yield: scale of the general procedure 0.5 mmol

| Substance | final HPLC purity | crude yield [%] | crude mass [mg] | crude mass (scale 0.5 mmol) [mg] |
| --- | --- | --- | --- | --- |
| PEPTIDE1{M.G.I.G.K.F.L.R.E.A.G.K.F.G.K.A.F.V.G.E.I.M.K.G.I.G.K.F.L.R.E.A.G.K.F.G.K.A.F.V.G.E.I.M.K.P}$$$$V2.0 | greater than 95% | 84 | 562 |  |
| Met-(Mag 1)-(Mag 1) | greater than 97% | 82 |  | 796 |
| PEPTIDE1{G.M.A.S.K.A.G.A.I.A.G.K.I.A.K.V.A.L.K.A.L}$$$$V2.0 | greater than 98% | 71 |  | 559 |
